Test results from PubChem BioAssay AID493014 (National Center for Advancing Translational Sciences (NCATS), 2011).
The other results are listed elsewhere or left out. Further columns of the screen follow, without active or inactive calls. Compounds called inactive in the main read-out are mostly missing here. The note in brackets gives the kind of curve behind each potency; many fits are weak.

Experiment: qHTS Assay to Find Inhibitors of Chronic Active B-Cell Receptor Signaling
Conditions: ABC-DLBCL IkBa-CBG/CBR reporter, luminescence ratio (green luciferase fused to IkBa over red control in TMD8 lymphoma cells), 4 h
Outline: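 Concentration-response series (up to 46 uM) were applied to TMD8 dual-reporter cells for 4 h at 37C with doxycycline. Green/red ratio, after filter-overlap correction, defined %Activity; red signal alone was normalised to basal cells and zero luminescence.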

[1] = measured here: CBR red luminescence, cell number
[2] = measured here: IkBa-CBG green luminescence

| SMILES | AC50 [1] | AC50 [2] |
| --- | --- | --- |
| CN1CCN(c2cn[nH]c(=O)c2Cl)CC1 | 12.6 µM [falling, single point] |  |
| Oc1c(Br)cc(Br)cc1Oc1ccc(Br)cc1Br | 25.9 µM [rising, single point] |  |
| Clc1ccc(N=NN2CCOCC2)cc1 | 4.47 µM [rising, partial curve, poor fit] |  |
| C=CCn1c(O)c(/C(C)=N/N2CCCCCC2)c(=O)[nH]c1=O | 8.91 µM [falling, partial curve, poor fit] |  |
| O=[N+]([O-])c1ccc(N2CCNCC2)cc1N1CCCCCC1 | 11.2 µM [falling, partial curve] |  |
| O=C1NC(=O)[C@]2(Cc3ccccc3N3CCN(c4ccccc4)CC32)C(=O)N1c1ccccc1 (stereo partly drawn) | 8.91 µM [falling, partial curve, poor fit] |  |
| CCCCn1c(N)c(C(=O)OCC2CCCO2)c2nc3ccccc3nc21 (stereo not drawn) | 9.2 µM [falling, partial curve] |  |
| O=C(COc1ccc(Cl)cc1)N1CCN(C2CCCC2)CC1 | 5.62 µM [falling, partial curve, poor fit] |  |
| Cc1c(C(=O)N2CCC3(CC2)OCCO3)sc2ncnc(N(C)c3ccccc3)c12 | 0.631 µM [rising, partial curve, poor fit] |  |
| C1=C(CCNCc2ccccc2)CCCC1 | 20.6 µM [falling, single point] | 18.4 µM [rising, partial curve, poor fit] |
| Cc1nc2ccccc2c(=O)n1-c1ccc(Cl)cc1Cl | 8.91 µM [rising, partial curve] |  |
| CN(C)C(=O)Oc1noc2cc(Cl)ccc12 | 0.112 µM [rising, full curve, poor fit] |  |
| C[C@]12CCC3C(CCC4=CC(O)CC[C@@]43/C=N/O)C1(O)CCC2C1=CC(=O)OC1 (stereo partly drawn) | 0.631 µM [rising, full curve, poor fit] |  |
| CCN1CCN(C(=O)Cc2c(C)n(C(=O)c3ccc(Cl)cc3)c3ccc(OC)cc23)CC1 | 17.8 µM [falling, single point] |  |
| CCCCOC(=O)C1=C(N)OC2=C(C(=O)CCC2)[C@]12C(=O)Nc1ccccc12 | 0.0164 µM [falling, full curve, poor fit] |  |
| Cc1[nH]c2ccc(OC(F)(F)F)cc2c1CCNCc1cccc([N+](=O)[O-])c1 | 35.5 µM [falling, partial curve, poor fit] |  |
| CCOC(=O)C1(CCOc2ccccc2)CCN(Cc2ccc(NC(C)=O)cc2)CC1 | 35.5 µM [rising, single point] |  |
| Cn1c(O)c(/C=N/NC(=O)c2ccncc2)c(=O)n(C)c1=S | 8.91 µM [falling, partial curve, poor fit] |  |
| CCCCNC(=O)CN1C(=O)CN=C(c2ccccc2)c2ccccc21 | 1.41 µM [rising, full curve] |  |
| C[C@]12CC[C@H](O)C[C@H]1CC[C@@H]1[C@@H]2CC[C@]2(C)[C@@H](C3=CC(=O)OC3)CC[C@]12O | 2.06 µM [falling, partial curve] |  |
| CN(C)CC1CCCCC1OC(=O)c1ccc(Cl)c(Cl)c1 (stereo not drawn) | 29.1 µM [falling, single point] |  |

| SMILES | AC50 [1] | AC50 [2] |
| --- | --- | --- |
| COc1ccc(-c2cc(=Nc3cccc(C(=O)O)c3)c3cc(C)ccc3o2)cc1 | 3.55 µM [rising, partial curve] |  |
| O=C(/C=C/C=C/c1ccccc1)CC1(O)C(=O)Nc2ccccc21 (stereo not drawn) | 12.6 µM [falling, single point] | 12.6 µM [rising, partial curve, poor fit] |
| CCOC(=O)c1c(N)n(Cc2ccco2)c2nc3ccccc3nc12 | 1.12 µM [falling, full curve, poor fit] |  |
| CCC(C)NC(=O)c1c(N)n(CCCOC)c2nc3ccccc3nc12 (stereo not drawn) | 11.2 µM [falling, partial curve] |  |
| CCC(=NCCCn1ccnc1)c1c(O)n(Cc2ccccc2)c(=O)[nH]c1=O | 23.1 µM [falling, single point] |  |
| Cc1cc(C)cc(OCCOc2cccc(C=C3C(=O)NC(=O)NC3=O)c2)c1 | 15.8 µM [falling, single point] |  |
| CN1C(=O)NC(=O)[C@]2(Cc3ccccc3N3CCN(c4ccccc4)CC32)C1=O (stereo partly drawn) | 2.59 µM [falling, full curve] |  |
| c1ccc2c(CN3CCCCCCC3)c[nH]c2c1 | 35.5 µM [falling, single point] |  |
| Cc1ccccc1Cc1c(C)nc2nc(SCC(=O)N3CCC4(CC3)OCCO4)nn2c1C | 20.6 µM [rising, single point] |  |
| NC(=O)CSc1nnc([C@@H](N)Cc2c[nH]c3ccccc23)o1 | 3.98 µM [falling, full curve, poor fit] |  |
| Clc1ccc(COC(Cn2ccnc2)c2ccc(Cl)cc2Cl)cc1 (stereo not drawn) | 35.5 µM [falling, single point] | 12.6 µM [rising, partial curve, poor fit] |
| COc1ccc2c(c1OC)C(=O)OC2C1c2cc3c(cc2CCN1C)OCO3 (stereo not drawn) | 5.01 µM [rising, partial curve] |  |
| Cc1ccc(-c2cc(C(=O)N3CCC4(CC3)OCCO4)no2)cc1 | 7.94 µM [rising, partial curve, poor fit] |  |
| FC(F)(F)c1ccc2c(c1)nnn2C1CCN(Cc2nnnn2Cc2ccccc2)CC1 | 20 µM [falling, single point] |  |
| CCCCCCCCCOc1ccc2[nH]cc(CCN)c2c1 | 5.62 µM [rising, single point] |  |
| CCN(CC)C(=O)c1ccc(NC(=O)Nc2ccccc2F)cc1 | 20 µM [falling, single point] |  |
| COC(=O)c1ccc(NC(=O)CSc2nc3ccc(N4C(=O)C5C6C=CC(C6)C5C4=O)cc3s2)cc1 (stereo not drawn) | 14.6 µM [falling, partial curve, poor fit] | 16.4 µM [rising, partial curve, poor fit] |
| CCNc1cc(N2CCNCC2)ccc1[N+](=O)[O-] | 6.31 µM [rising, full curve, poor fit] | 14.1 µM [falling, partial curve, poor fit] |
| Cc1ccccc1-n1c(O)c(/C=N/NC(=O)c2ccccc2O)c(=O)[nH]c1=S | 2.82 µM [falling, full curve] |  |
| C[C@H]1CCCC(=O)CCCCCc2cc(O)cc(O)c2C(=O)O1 | 8.91 µM [falling, partial curve] |  |
| CC(C)OP(=O)(OC(C)C)C(Nc1ccccc1)c1ccccc1C(F)(F)F (stereo not drawn) | 18.4 µM [falling, partial curve] |  |

| SMILES | AC50 [1] | AC50 [2] |
| --- | --- | --- |
| O=c1[nH]c(=S)n(C2CC2)c(O)c1C=NCCc1ccccc1 | 2 µM [rising, partial curve, poor fit] |  |
| O=S(=O)(CCSc1ccc(C(F)(F)F)cn1)c1ccc(Cl)cc1 | 11.2 µM [falling, partial curve, poor fit] |  |
| CNC(=O)Oc1ccc(-c2cn3cc(Cl)ccc3n2)cc1 | 16.4 µM [falling, partial curve] |  |
| O=C(CN1CCOCC1)c1ccc(Br)cc1 | 7.08 µM [falling, partial curve, poor fit] |  |
| CSc1nc(N)c(N=Nc2ccc([As](=O)(O)O)cc2)c(=O)[nH]1 | 12.6 µM [falling, partial curve] |  |
| Cn1c(O)c(C(=Nc2ccccc2)SCc2ccc(Cl)cc2)c(=O)n(C)c1=O | 4.47 µM [falling, full curve] |  |
| O=C1NCCN2CCCC12 (stereo not drawn) | 7.08 µM [falling, full curve] |  |
| CCCCc1ncc(CN2CCCC(C(=O)c3ccc(SC)cc3)C2)[nH]1 (stereo not drawn) | 11.2 µM [falling, partial curve, poor fit] |  |
| O=c1c2ccccc2nc(Cc2ccccc2)n1-c1ccccc1O | 3.55 µM [rising, single point] |  |
| Cn1c(O)c(/C=N/c2ncccn2)c(=O)n(C)c1=O | 6.51 µM [rising, single point] |  |
| Cn1cccc1/C=C1/C(=O)NC(=O)N(Cc2ccc(F)cc2)C1=O | 35.5 µM [rising, single point] | 28.2 µM [falling, single point] |
| COc1ccc(/C=C2/SC(=S)N(c3ccc(S(=O)(=O)Nc4nccs4)cc3)C2=O)cc1 | 11.2 µM [falling, single point] |  |
| O=c1[nH]c(=O)n(CCc2ccccc2)c(O)c1C=NCCCn1ccnc1 | 0.00517 µM [falling, full curve, poor fit] |  |
| O=C(Cc1c(O)c2ccccc2oc1=O)c1ccc(F)cc1 | 0.0731 µM [rising, full curve, poor fit] |  |
| COc1cc(O)cc2c1C(=O)OC(C)CCCC(=O)CCC/C=C\2 (stereo not drawn) | 14.1 µM [falling, partial curve, poor fit] |  |
| CCCCn1c(N)c(C(=O)NCCN2CCOCC2)c2nc3ccccc3nc21 | 25.1 µM [falling, single point] |  |
| CN1C(=O)N(C)C(=O)C2(Cc3ccccc3N3CCCC32)C1=O (stereo not drawn) | 5.62 µM [falling, single point] |  |
| CCCc1c(C)nc(-c2ccc(C)cc2)nc1OC(=O)N(C)C | 11.2 µM [rising, single point] |  |
| O=C(C1CCCN(S(=O)(=O)c2cccc3nsnc23)C1)N1CCC2(CC1)OCCO2 (stereo not drawn) | 0.206 µM [rising, full curve, poor fit] |  |
| COc1ccc(OC)c(N=Cc2c(O)n(Cc3ccccc3)c(=S)[nH]c2=O)c1 | 0.251 µM [falling, full curve, poor fit] |  |

Not a retest: entries from further up.

| SMILES | AC50 [1] | AC50 [2] |
| --- | --- | --- |
| O=c1[nH]c(=S)n(C2CC2)c(O)c1C=NCCc1ccccc1 | 2 µM [rising, partial curve, poor fit] |  |
| O=S(=O)(CCSc1ccc(C(F)(F)F)cn1)c1ccc(Cl)cc1 | 11.2 µM [falling, partial curve, poor fit] |  |
| CNC(=O)Oc1ccc(-c2cn3cc(Cl)ccc3n2)cc1 | 16.4 µM [falling, partial curve] |  |
